± gives the standard deviation. This is a selection; strong and weak results do not stand in their true shares. The uncertainty is large for many entries.
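Also: 1 nM active piRISC with 0.1 nM target library at 33 °C single turnover.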

The assay deals with MIWI (PIWIL1) piRISC loaded with piRNA #1 (30 nt). Description: pre-steady-state target cleavage rate (min^-1); MIWI and MILI are mouse PIWI proteins and EfPiwi is from a freshwater sponge; tags in brackets are library labels; higher = faster piRNA-guided slicing of the target. Conditions: guide: piRNA #1 5'p-UGAGGUAGUAGGUUGUAUAGUAUCCAGAGG; auxiliary factor: 500 nM mouse GTSF1. The procedure, abridged:
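Reactions were run for 0–8 or 0–960 min at 33 °C in HEPES–potassium acetate buffer, combining 1 nM active affinity-purified piRISC with one synthetic guide, […] transcribed, DNA-blocked target RNA library and, in some cases, 500 nM GTSF1 partner protein. Sequencing of uncleaved targets followed, with normalisation to depth and to weakly complementary targets. Three trials were pooled, k3 was capped at 0.0001 min^-1, and the pre-steady-state cleavage rate was taken from a burst-and-steady-state fit.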
GGUCUGGAUACUAUACAACCCUACUACCUCA: the “pre-steady-state target cleavage rate” value is 0.000673 ± 0.0068.

With GCUCUGGAUACGAUACAACCUACUACCUCA, the “pre-steady-state target cleavage rate” value was determined as 1.7 ± 0.086.

As to CCUCUGGAUCCUAUACAACCUACUACCUCA, the “pre-steady-state target cleavage rate” value was found to be 1.38 ± 0.14.

Regarding GGUCUGGAUACUAUACAACGCUACUACCUCA, the “pre-steady-state target cleavage rate” value was 0.000506 ± 0.01.

As to “GCUCUGGAUACUAUACAACCUACUACCUCU [g2:g29:cont:t1U]”, the “pre-steady-state target cleavage rate” value stood at 2.16 ± 0.13.

As to CCUGUGGAUACUAUACAACCUACAACCUCA, the “pre-steady-state target cleavage rate” value worked out at 0.383 ± 0.043.

For the sequence GCUCUGGAUACUAUCACAACCUACUACCUCA, the “pre-steady-state target cleavage rate” value came to 1.62 ± 0.12.

As for GGAGUGGAUACUAUAGAACCUACUACCUCA, the “pre-steady-state target cleavage rate” value was 1.34 ± 0.076.

Consider GGUCUCGAUACUAUUCAACCUACUACCUCA, for which the “pre-steady-state target cleavage rate” value is 1.86 ± 0.12.

Turning to GGUCUGGAUACUAUACACACCUACUACCUCA, the “pre-steady-state target cleavage rate” value stood at 0.000625 ± 0.013.

On to GGACUGGAUGCUAUACAACCUACUACCUCA, for which the “pre-steady-state target cleavage rate” value came to 1.82 ± 0.15.

In the case of GGAGACCUUACUAAUGAACCUACUACCUCA, the “pre-steady-state target cleavage rate” value came to 0.00045 ± 0.0055.

On to GGAGACCAUACUAUACGAACCUACUACCUCA, for which the “pre-steady-state target cleavage rate” value was determined as 0.00142 ± 0.0045.

On to CCUCUGGAUACUAUACAACCUACAACCUCA, for which the “pre-steady-state target cleavage rate” value worked out at 1.56 ± 0.1.

Take GGAGACCUAUGAUUACAACCUACUACGCUCA: the “pre-steady-state target cleavage rate” value stood at 0.00159 ± 0.0058.

For GGUCUGGAUACUAUAGAACCUACAACCUCA, the “pre-steady-state target cleavage rate” value is 0.000599 ± 0.0073.

With GGUCUGGAUACUAUUCAACCUACUACCACA, the “pre-steady-state target cleavage rate” value was determined as 0.506 ± 0.045.

Turning to GGAGACGAUACAAUACAACCUACUACCUCA, the “pre-steady-state target cleavage rate” value was found to be 1.29 ± 0.097.

As for CCUCUGGAUACUUUACAACCUACUACCUGA, the “pre-steady-state target cleavage rate” value amounted to 0.715 ± 0.1.

In the case of GGUCUGGAUACUAUUCAACCUACAACCUCA, the “pre-steady-state target cleavage rate” value was 0.28 ± 0.033.

For GGUCUGGAUACUAUACAACUCUACUACCUCA, the “pre-steady-state target cleavage rate” value was 0.000177 ± 0.016.

In the case of GGAGACCUAUCUAUACUACCUACUACCUCA, the “pre-steady-state target cleavage rate” value was determined as 0.0899 ± 0.011.

In the case of GGAGACCUUACUAUACAACGAACUACCUCA, the “pre-steady-state target cleavage rate” value is 0.00122 ± 0.0025.

With GCUCUCCAUACUAUACAACCUACUACCUCA, the “pre-steady-state target cleavage rate” value came out at 2.13 ± 0.13.

As to GCUCUGGAUACUAUUCAACCUACAACCUCA, the “pre-steady-state target cleavage rate” value stood at 1.3 ± 0.099.

In the case of CCUCAGGAUACUAUACAACCUACUACCUCA, the “pre-steady-state target cleavage rate” value is 1.98 ± 0.12.

Consider GGAGACCUAUGAUAAAACCUACUACCUCA, for which the “pre-steady-state target cleavage rate” value was determined as 0.000638 ± 0.0047.

Regarding GGACUGGAUACCUAUACAACCUACUACCUCA, the “pre-steady-state target cleavage rate” value worked out at 1.15 ± 0.095.

In the case of ACUCUGGAUACUAUACAACCUACUACCUCA, the “pre-steady-state target cleavage rate” value was found to be 2.19 ± 0.13.

On to CCUCAGGAUACUAUACAUCCUACUACCUCA, for which the “pre-steady-state target cleavage rate” value is 2.03 ± 0.12.

As for GCCCUGGAUACUAUACAACCUACUACCUCA, the “pre-steady-state target cleavage rate” value came to 2.17 ± 0.12.

Turning to GGAGACCUAUGAAUACAACCUACGUACCUCA, the “pre-steady-state target cleavage rate” value came to 0.0016 ± 0.0029.

Regarding GGAGACCUAACUUAUCAACCUACUACCUCA, the “pre-steady-state target cleavage rate” value came to 0.00263 ± 0.0063.

On to GCUCUGGAAACUAUUCAACCUACUACCUCA, for which the “pre-steady-state target cleavage rate” value came to 1.68 ± 0.12.

Take GCUCUGGAUACUAUACAACCCUACUACCUCA: the “pre-steady-state target cleavage rate” value was determined as 0.00284 ± 0.0037.

Consider GGAGACCUAUGAUUACAACCUACUACCACA, for which the “pre-steady-state target cleavage rate” value worked out at 0.000339 ± 0.0063.

Consider CCUCUGGAUAUAUACAACCUACUACCUCA, for which the “pre-steady-state target cleavage rate” value was determined as 1.9 ± 0.12.

For the sequence GCUCUGGCUACUAUACAACCUACUACCUCA, the “pre-steady-state target cleavage rate” value was found to be 1.93 ± 0.099.

These data come from the supplement of paper PMC10338343.
